Measured values reported in ChEMBL document CHEMBL1908105, “UDP-glucuronosyltransferases and clinical drug-drug interactions” (Pharmacol Ther, 2005).

Columns and labels:
[1] = Inhibition of AZT glucuronidation by human UGT enzymes from liver microsomes; parameters: species or system Microsome
[2] = Inhibition of codeine glucuronidation by human UGT enzymes from liver microsomes; parameters: species or system Microsome

In the case of `CN1CC[C@]23c4c5ccc(O)c4O[C@H]2[C@@H](O)C=C[C@H]3[C@H]1C5` [MORPHINE], the Ki [1] is reported as 0.9 mM and the Ki [2] is reported as 3.6 mM.
